Experimental data reported in PubChem BioAssay AID587 (National Center for Advancing Translational Sciences (NCATS), 2007).
In all, about 59,000 compounds went through this assay and about 35 (0.06%) were called active. The inconclusive results got no clear call from the source; some entries with a clear call stand among them for comparison. No stated cut-off is given here; in the data, active means max dye-equivalent concentration above about 10 nM; inconclusive means between about 1.1 nM and that limit; inactive means weaker than that.

assay: qHTS Assay for Spectroscopic Profiling in Texas Red Spectral Region; details: Compound fluorescence, Texas Red channel, 547/618 nm; hits give high values
Summary of the method: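 qHTS profiling of intrinsic compound fluorescence; 100 mM Tris pH 8.0; 15 min RT; ex 547 / em 618 nm; response expressed as Texas Red dye-equivalent concentration from six-point plate standard.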

SMILES	max dye-equivalent concentration
O=C(CN(c1ccc(F)cc1)S(=O)(=O)c1ccc2c(c1)OCCO2)NCC1CCCO1 (configuration not stated)	inconclusive: 1.2 nM
Oc1ccc(C=Nc2cccc3ncccc23)c(O)c1	inconclusive: 1.2 nM
CC[N+](C)(CC)CCOC(=O)C1c2ccccc2Oc2ccccc21	inconclusive: 1.2 nM
Cc1nc(N2CCN(Cc3ccc4c(c3)OCO4)CC2)nc2c1C(=O)CC(c1ccco1)C2 (configuration not stated)	inconclusive: 1.4 nM
c1ccc(Nc2nc(-c3cccnc3)nc3ccccc23)cc1	inactive
CC(=O)Nc1cc2c(cc1NC(=O)Cn1nc(-c3ccccc3F)ccc1=O)OCCO2	inconclusive: 1.8 nM
CCCCN(CCCC)CCCOC(=O)c1ccc(N)cc1	inconclusive: 1.2 nM
O=C(c1ccccc1Br)N1CCN(c2ccccc2)CC1	inconclusive: 2.2 nM
Cc1cc(C)n2nc(CCc3nc4nc(C)cc(C)n4n3)nc2n1	inconclusive: 1.4 nM
NS(=O)(=O)c1ccc(CCNc2cc(=O)n(Cc3ccc(F)cc3)c(=O)[nH]2)cc1	inconclusive: 1.4 nM
O=C1C(Cl)=C(Nc2ccc(S(=O)(=O)Nc3ccccn3)cc2)C(=O)c2ccccc21	inactive
CCN(CCNC(=O)CS(=O)(=O)Cc1nc(-c2cccc(OC)c2)oc1C)c1ccccc1	inconclusive: 1.9 nM
COCC(=O)N1CCC2(CC1)CN(Cc1ccccc1OC)C2	inactive
CN1/C(=C\P(=O)(N(C)C)N(C)C)C(C)(C)c2ccccc21	active: 47 nM
CCC(=O)c1ccc(OCC(O)Cn2c(C)nc3ccccc32)cc1 (configuration not stated)	inconclusive: 2.6 nM
Cc1cn[nH]c1	inconclusive: 1.5 nM
CCOC(=O)c1cnc(-n2nc(C)cc2C)nc1N1CC(C)OC(C)C1 (configuration not stated)	inconclusive: 1.4 nM
O=c1[nH]c(=O)n([C@H]2C[C@H](O)[C@H](CO)O2)cc1/C=C\Br	inconclusive: 1.2 nM
CC(C)(C#N)Nn1cnnc1	inconclusive: 1.7 nM

SMILES	max dye-equivalent concentration
Nc1ccc(CCS(N)(=O)=O)cc1	inconclusive: 1.3 nM
Nc1cc(C(=O)O)[nH]c(=O)n1	inactive
CCN(c1ccccc1)S(=O)(=O)c1ccc(F)c(C(=O)O)c1	inconclusive: 1.3 nM
c1ccc(-c2ncnc3nc4n(c23)CCC4)cc1	inconclusive: 1.6 nM
O=C(CSc1nnc(-c2ccc(F)cc2)o1)c1ccc2c(c1)OCCO2	inconclusive: 1.1 nM
CCn1c(=O)n(CC)c2cc(S(=O)(=O)NCCOc3ccccc3)c(C)cc21	inconclusive: 1.1 nM
Nn1c(SCc2cccc(C(F)(F)F)c2)nnc1-c1ccco1	inconclusive: 1.2 nM
CCOCC(=O)Nc1c(C(=O)OCC)oc2ccccc12	inconclusive: 2 nM
COc1ccc2c(c1)CCc1c-2n[nH]c1C(=O)O	inconclusive: 1.2 nM
CCCCNC(=O)C(C#N)c1nc2ccccc2nc1N1CCCC1 (configuration not stated)	inactive
CCNc1ncc2ncc(=O)n(Cc3cccc(OC)c3)c2n1	inactive
CC(=O)c1ncnn1CC(=O)c1ccc(Cl)cc1Cl	inconclusive: 1.5 nM
CCOC(=O)N1CCC(NC(=O)CCC(=O)c2ccccc2)CC1	inconclusive: 1.2 nM
Cc1cc(C)n(-c2nc3c(c(=O)[nH]c(=O)n3C)n2CC(O)c2ccccc2)n1 (configuration not stated)	inconclusive: 1.2 nM
COC(=O)CCN(C1CCCCC1)S(=O)(=O)c1ccc(S(=O)(=O)N2CCCCC2)cc1	inconclusive: 2.7 nM
NC(N)=NS(=O)(=O)c1ccc(N)cc1	inconclusive: 1.1 nM
Cc1cc(C)nc(SCc2nnc(SCC(=O)Nc3ccccc3C)n2Cc2ccco2)n1	inconclusive: 1.1 nM
COc1ccc(S(=O)(=O)NCC2CCC(C(=O)N3CCC4(CC3)OCCO4)CC2)cc1 (configuration not stated)	inconclusive: 1.2 nM
O=C(NCC1CCCO1)c1ccc(C(=O)NCC2CCCO2)cc1 (configuration not stated)	inconclusive: 2.4 nM

SMILES	max dye-equivalent concentration
Cc1ccc(F)cc1NC(=O)c1ccc2c(c1)OCO2	inactive
CCC(NS(=O)(=O)c1ccc(C)cc1)C(=O)Nc1ccc(NC(C)=O)cc1 (configuration not stated)	inconclusive: 2.1 nM
COc1ccccc1C(=O)N1CCC(C(=O)c2ccc(F)cc2)CC1	inconclusive: 1.6 nM
CCOC(=O)c1[nH]c(COC(=O)C2CC(=O)N(Cc3ccccc3)C2)c(C(=O)OCC)c1C (configuration not stated)	inconclusive: 1.3 nM
O=C(NCc1ccco1)c1cc2sccc2n1Cc1ccc(F)cc1	inconclusive: 1.8 nM
C1=C(c2ccc(-c3ccccc3)cc2)Nc2ncnn2C1c1ccco1 (configuration not stated)	inactive
CC[N+](C)(C)c1cccc(O)c1	inconclusive: 1.3 nM
COc1ccc(NC(=O)C(CC(C)C)NC(=O)c2ccccc2C)cn1 (configuration not stated)	inconclusive: 1.3 nM
COc1ccccc1CCn1c(=O)c(-c2cccc(Cl)c2)nc2cncnc21	inactive
C=CCn1c(COc2ccccc2C)nnc1SCC(=O)O	inconclusive: 1.8 nM
Cc1nnc(SCc2cc(=O)[nH]c(N3CCN(Cc4ccccc4)CC3)n2)s1	inconclusive: 1.7 nM
C=CCn1c(C)cc(C(=O)COc2ncnc3sccc23)c1C	inconclusive: 1.1 nM
COCC(=O)NC1CC2CCCC(C1)N2Cc1ccccc1 (configuration not stated)	inconclusive: 1.1 nM
CC(=O)N1CCC2(CCCN(c3ccncc3)C2)CC1	inactive
CN(C)Cc1ccccc1-c1cncnc1NCc1cccnc1	inconclusive: 1.2 nM
O=C(COC(=O)c1ccc(Br)o1)NCc1ccco1	inconclusive: 1.1 nM
COc1ccc(-c2coc3ccc(O[C@@H]4O[C@@H](COC(C)=O)[C@@H](OC(C)=O)[C@@H](OC(C)=O)[C@H]4OC(C)=O)cc3c2=O)cc1	inactive
CCN(CC)S(=O)(=O)c1ccc(NC(=O)COC(=O)c2ccc(Br)o2)cc1	inconclusive: 1.8 nM
CCCc1nc2c(nnn2Cc2ccccc2)c(=O)[nH]1	inconclusive: 1.9 nM

Pulled by compound from the list above:
SMILES	max dye-equivalent concentration
CC[N+](C)(CC)CCOC(=O)C1c2ccccc2Oc2ccccc21	inconclusive: 1.2 nM
NC(N)=NS(=O)(=O)c1ccc(N)cc1	inconclusive: 1.1 nM
c1ccc(-c2ncnc3nc4n(c23)CCC4)cc1	inconclusive: 1.6 nM
COCC(=O)NC1CC2CCCC(C1)N2Cc1ccccc1 (configuration not stated)	inconclusive: 1.1 nM
